# Measurements reported in PubChem BioAssay AID504648 (National Center for Advancing Translational Sciences (NCATS), 2011).
# Hit rate of the full screen: of about 390,000 compounds, about 610 (0.16%) were called active. Inconclusive means that the source gave no clear call. Such entries were picked first, then a sample of the others. Calls follow the shape of the dose curve; as a rule, active = well fitted inhibition curve with a large enough effect; inconclusive = small, poorly fitted or top-dose-only effect, or effect the other way, or another doubt; inactive = no such curve, though single readings can be large or run the other way. A potency beside an inconclusive call is a rough fit, not a confirmed value.
# Assay: Nrf2 qHTS screen for inhibitors: counterscreen for cytotoxicity
# Conditions: A549 ARE-Fluc cells, CellTiter-Fluor viability, 18-24 h; activity change, negative = cytotoxicity: at 46 µM (top of the series)
# Method in brief: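 A549 ARE_Fluc cells in 5% FBS OPTI-MEM were exposed to compounds in concentration-response for 18-24 h at 37 deg C. Viability was read by CellTiter-Fluor fluorescence (Ex 405/Em 525) after 30 min, before the luciferase read.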
# % is scaled to controls: 0 for no effect and ±100 for the full control effect; potency is read from the fitted curve at half-maximal effect.
SMILES,Potency,"activity change, negative = cytotoxicity"
Cc1nc2c(-c3ccc(Cl)cc3)c(C)[nH]n2c(=O)c1Cc1ccccc1,"inconclusive: 18.4 µM [falling, single point]",
CC1=C(CC(=O)c2ccc(Cl)cc2)C(=O)c2ccccc2C1=O,"inconclusive: 29.1 µM [falling, single point]",
CN1/C(=C\C=N\NC(=O)c2ccc(O)cc2)C(C)(C)c2ccccc21,"inconclusive: 29.1 µM [falling, single point]",
Cc1ccc(CNC(=O)c2cc(COc3c(F)cccc3F)on2)s1,,inactive: 0.182%
Cc1ccc(C)c(N2CCN(C(=O)C3CCN(c4nc(-c5ccc(C(C)C)cc5)no4)CC3)CC2)c1,"inconclusive: 23.1 µM [falling, single point]",
O=C(CSc1ccccn1)Nc1nc2c(ccc3ccccc32)s1,"inconclusive: 32.6 µM [activator, partial curve, poor fit]",
CCOC(=O)C1CCCN(C(=O)c2ccc3c(c2)N(Cc2ccccc2)C(=O)c2ccccc2S3(=O)=O)C1 (configuration not stated),,inactive: -4.68%
Cc1ccc(C(=O)Nc2sc3c(c2C(=O)O)CCCC3)o1,"inconclusive: 9.2 µM [falling, partial curve, poor fit]",
COc1cc(/C=C2\SC(=O)N(c3ccc(O)cc3)C2=O)cc(OC)c1OC,,inactive: 1.38%
CC(C)(C)n1nnnc1C(c1cccs1)N(Cc1cccnc1)Cc1ccccc1Cl (configuration not stated),"inconclusive: 20.6 µM [falling, single point]",
CCCCCCCCCCCCCCCC[N+](C)(C)CCN(Cc1ccc(OC)cc1)c1ncccn1,"inconclusive: 23.1 µM [falling, single point]",
Cc1ccccc1NC(=O)c1ccc(CN2CCC(Cc3ccccc3)CC2)cc1,"inconclusive: 29.1 µM [falling, partial curve, poor fit]",
Cn1cnnc1SCc1ccc(C(=O)N=Nc2c(O)n(Cc3ccc(Cl)cc3)c3ccccc23)cc1,,inactive: -14.6%
CC(C)(C)c1nc(N2CCN(C(=O)c3ccco3)CC2)c2nnn(Cc3ccccc3)c2n1,"inconclusive: 23.1 µM [falling, single point]",
CCc1c(C)sc2c1CCN(Cc1cccc(F)c1)C2c1ccccc1 (configuration not stated),"inconclusive: 23.1 µM [falling, partial curve, poor fit]",
CCCCOc1ccc(C(O)(CC)CCN2CCOCC2)cc1 (configuration not stated),"inconclusive: 29.1 µM [activator, partial curve, poor fit]",
COc1ccccc1C(=O)NCC(=O)NCCCN1CCOCC1,,inactive: 3.23%
N#CCc1ccc(NC(=O)/C=C/c2ccc([N+](=O)[O-])o2)cc1,"inconclusive: 20.6 µM [falling, single point]",
Cc1ccc(NC(=O)c2cc(C(C)(C)C)nn2Cc2ccccc2)cc1,"inconclusive: 29.1 µM [falling, single point]",
Brc1ccc(CSc2nnc(-c3cnccn3)n2Cc2ccco2)cc1,"inconclusive: 13 µM [activator, partial curve, poor fit]",
CC(=O)Nc1sc(/C(C#N)=C\c2cccc(Cl)c2)nc1-c1ccc(C)cc1,"inconclusive: 18.4 µM [activator, partial curve]",
OCCCNc1c2c(nc3cc(-c4ccc(Cl)cc4)nn13)CCC2,"inconclusive: 5.8 µM [activator, partial curve, poor fit]",
CS(=O)(=O)N(CC(=O)Nc1ccccc1C(=O)N1CCOCC1)c1ccc2c(c1)OCO2,"inconclusive: 3.26 µM [activator, single point]",

# Complete entries, looked up by structure.
# Cc1ccc(C)c(N2CCN(C(=O)C3CCN(c4nc(-c5ccc(C(C)C)cc5)no4)CC3)CC2)c1 in the list: Potency: inconclusive: 23.1 µM [falling, single point]
# CCCCOc1ccc(C(O)(CC)CCN2CCOCC2)cc1 (configuration not stated) in the list: Potency: inconclusive: 29.1 µM [activator, partial curve, poor fit]
# Cc1ccc(CNC(=O)c2cc(COc3c(F)cccc3F)on2)s1 in the list: activity change, negative = cytotoxicity: inactive: 0.182%

# (cont.)

SMILES,Potency,"activity change, negative = cytotoxicity"
c1ccc2c(N3CCOCC3)nc(N3CCOCC3)nc2c1,,inactive: -7.13%
CC1CCN(CC(O)COCCC23CC4CC(CC(C4)C2)C3)CC1 (configuration not stated),"inconclusive: 29.1 µM [falling, single point]",
O=c1c(C(c2ccc(F)cc2)c2c(O)nc3n(c2=O)CCS3)c(O)nc2n1CCS2,,inactive: 2.07%
CCc1cc(Cn2nc(-c3ccccc3)cc2C(=O)NCc2cccc(C(F)(F)F)c2)on1,"inconclusive: 32.6 µM [falling, partial curve, poor fit]",
COc1ccc(S(=O)(=O)N2CCN(c3ccccc3F)CC2)cc1-c1noc(C)n1,"inconclusive: 8.2 µM [activator, partial curve, poor fit]",
CC(C(=O)N1CCOCC1)c1ccc([N+](=O)[O-])cc1 (configuration not stated),"inconclusive: 29.1 µM [activator, single point]",
O=C(O)c1cccc(-c2ccc(/C=C3/SC(=Nc4ccccc4)N(Cc4cccnc4)C3=O)o2)c1,"inconclusive: 23.1 µM [falling, single point]",
COC(=O)c1c(C)oc2ccc(N(C(=O)c3ccncc3)S(=O)(=O)c3ccc(C)cc3C)cc12,"inconclusive: 20.6 µM [falling, partial curve, poor fit]",
Cc1ccc(-n2c(SCC(=O)N/N=C/c3c(C)nn(-c4ccccc4)c3C)nc3ccccc3c2=O)cc1,active: 8.2 µM,
Cc1ccc(O)c(C(CC(=O)NCC2(c3ccccc3)CCCC2)c2ccccc2)c1 (configuration not stated),"inconclusive: 23.1 µM [falling, single point]",
O=C(Nc1c(F)cccc1F)c1cnc(N2CCN(c3ccccn3)CC2)c2ccccc12,"inconclusive: 25.9 µM [falling, single point]",
CCOc1ccc(N2CC(c3nc4ccccc4n3Cc3cccc(Cl)c3)CC2=O)cc1 (configuration not stated),"inconclusive: 29.1 µM [falling, partial curve, poor fit]",
C/C(=N\NC(=S)NCC(C)(C)C)c1cc(F)cc(F)c1O,"inconclusive: 20.6 µM [falling, single point]",
COc1ccc(C2CC(c3ccc(Cl)cc3)=NN2C(C)=O)cc1 (configuration not stated),,inactive: -5.57%
O=C(O)CCn1nnc(-c2cccs2)n1,,inactive: 2.74%
O=c1[nH]nc(SCc2ccccc2Cl)n1-c1ccc2c(c1)OCCO2,,inactive: -15.2%
CCN(CC)CCNc1ccc(C)c2sc3ccc(O)cc3c(=O)c12,,inactive: -9.92%
CCOCCCNC(=O)/C(C#N)=C/c1cc(OC)c(O)c([N+](=O)[O-])c1,active: 18.4 µM,
Nc1ccc2nn(-c3ccccc3)nc2c1,,inactive: -1.16%
CCOC(=O)N1CCc2c(sc(NC(=O)c3ccc(S(=O)(=O)N4CCCC4)cc3)c2C#N)C1,,inactive: -28%
Cc1nc2ccccc2n1-c1nc(-c2ccco2)cc(C(F)(F)F)n1,"inconclusive: 4.61 µM [falling, full curve]",
Cc1cc(Nc2cccc([N+](=O)[O-])c2)n2c(nc3ccccc32)c1C#N,"inconclusive: 11.6 µM [falling, partial curve]",
CC(C)C[C@H](NC(=O)c1nc[nH]c1C(=O)N[C@@H](CCCCNC(=O)OC(C)(C)C)C(=O)OC(C)(C)C)C(=O)OC(C)(C)C,"inconclusive: 29.1 µM [falling, single point]",

SMILES,Potency,"activity change, negative = cytotoxicity"
CC(C)N(CCn1cnc2c([nH]c3ccccc32)c1=O)C(C)C,,inactive: 3.9%
CN(C)C(CNC(=O)CSc1nc2sc3c(c2c(=O)n1C)CCCC3)c1ccccc1 (configuration not stated),"inconclusive: 16.4 µM [falling, single point]",
Cc1nc(-c2ccccc2)sc1C(=O)CSc1ccc(Cl)cc1,"inconclusive: 0.411 µM [activator, full curve, poor fit]",
COc1ccc(OC)c(-c2nc(C(=O)NCC3CCCO3)cc3c2[nH]c2ccccc23)c1 (configuration not stated),,inactive: -1.78%
Cc1n[nH]c(C)c1CCc1nc2c3ccccc3nc(SCC(=O)Nc3ccccc3F)n2n1,"inconclusive: 29.1 µM [falling, single point]",
CSc1nsc(SCC(=O)Nc2ccc(Br)cn2)n1,,inactive: 3.45%
CCC(=O)N1CCc2cc(Br)cc(S(=O)(=O)N3CCC(C(=O)NC(C)(C)C)CC3)c21,inactive,
Cc1cc(C)c(S(=O)(=O)N2CCN(C(=O)C3CC3)CC2)c(C)c1,,inactive: 1.56%
COc1ccc(C(=O)CCc2ccc(OC)c(OC)c2)cc1,,inactive: -14.7%
O=C(/C=C/c1cccc(C(F)(F)F)c1)N1CCN(c2ccccn2)CC1,"inconclusive: 18.4 µM [falling, partial curve, poor fit]",
NC(=S)n1[nH]c(-c2ccc([N+](=O)[O-])cc2)c(N=Nc2cccc(Cl)c2)c1=O,"inconclusive: 13 µM [falling, partial curve]",
COC(=O)C(NC(=O)c1ccc(F)cc1)(Nc1ncc(S(=O)(=O)c2ccc([N+](=O)[O-])cc2)s1)C(F)(F)F (configuration not stated),"inconclusive: 29.1 µM [falling, partial curve, poor fit]",
OC(Cn1ccnc1)c1ccc(Cl)cc1Cl (configuration not stated),,inactive: 0.316%
COc1cc(/C=C/CNC[C@H]2O[C@@H](n3ccc(=O)[nH]c3=O)[C@H](O)[C@@H]2O)ccc1O,,inactive: -0.617%
Cc1nc(NCc2ccco2)c2c(C)c(C)sc2n1,"inconclusive: 13 µM [falling, partial curve, poor fit]",
NC(=O)c1nsc(C(=O)N(c2ccc(F)cc2)C(C(=O)NCC2CCCO2)c2c[nH]c3ccccc23)c1N (configuration not stated),"inconclusive: 29.1 µM [falling, single point]",
Cc1nc2ccccc2c2oc(C(=O)NCCCN3CCCC(C)C3)cc12 (configuration not stated),active: 20.6 µM,
CCN(CC)CCCN=C1N[C@@H](c2cccc(C(F)(F)F)c2)C(C(=O)OC)=C(C)N1CC,"inconclusive: 29.1 µM [falling, single point]",
Cc1cccc(NC(=S)NCc2ccc(F)cc2)c1,"inconclusive: 29.1 µM [activator, partial curve, poor fit]",
O=C1C(Cl)=C(NCc2cccnc2)C(=O)c2ccccc21,"inconclusive: 29.1 µM [falling, single point]",
COc1cc(NC(=O)c2c(OC)cccc2OC)ccc1NC(=O)c1cc2ccccc2o1,"inconclusive: 18.4 µM [falling, partial curve, poor fit]",
